In all, about 52,000 sequences went through this assay and about 210 (0.4%) were called active.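 Rule for the calls: active = gene whose silencing raises cell survival under the drug, median off-target-corrected z-score across its silencing RNAs 2 or more; inactive = the rest.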 The list shows a part of the results.
Experiment: Resistance to Poly (ADP-Ribose) Polymerase inhibitor: Gene Identification via Genome-wide siRNA Screen
Conditions: mouse BRCA2 R2336H ES cells, olaparib, CellTiter-Glo viability; active compounds read high
How it was run: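 Genome-wide siRNA screen (3 siRNAs/gene, 20 nM) in mouse ES cells carrying hypomorphic BRCA2 R2336H; olaparib 500 nM added 48 h post-transfection, CellTiter-Glo viability 72 h later. Normalized to plate-median negative control; MAD z-scores, gene median, seed-adjusted.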

Question: Which z-score does the source give for GGAAAGAUGCCGGAAAAUCTT against Ppp1r14a here?
Answer: inactive: 0.479

Question: For GGUUGUGUUUACCAUGAAGTT against Rps6ka6, which z-score is on record?
Answer: inactive: 1.45

Question: With GGGAAGAAAAUAUGGAAAATT against Isgf3g as the sequence, how does the z-score read?
Answer: inactive: -0.345

Question: With GGAGCCACAUGAAACACUATT against Dp1l1 as the sequence, how does the z-score read?
Answer: inactive: -0.484

Question: Which z-score does the source give for CCUAGAGAGUUAGAAAUAATT against Clpx here?
Answer: inactive: -0.79

Question: Which z-score does the source give for GCCAAUGAGCAGACUGUAUTT against Sycp1 here?
Answer: inactive: 0.483

Question: For GGGUAGUUAUACAAACUAATT against Snapc5, which z-score is on record?
Answer: inactive: 1.4

Question: Which z-score does the source give for CGAUUGUCGGGUUUUGUUUTT against Nutf2 here?
Answer: inactive: -2.63

Question: Which z-score does the source give for GGUCUAUCAGAUCAUCAAATT against Pde8a here?
Answer: inactive: 1.84

Question: Which z-score does the source give for GCCGGUUCAACAUCUAAUATT against Fgl2 here?
Answer: inactive: -0.256

Question: For CCUAUUUUUCUACUAACUGTT against Pkp2, which z-score is on record?
Answer: inactive: 2.01

Question: With “GCCUUUCUUCUAUUCACUATT against 2210008A03Rik” as the sequence, how does the z-score read?
Answer: inactive: -0.802

Question: For GCUAGCAGACCUAAACAAGTT against Scap, which z-score is on record?
Answer: inactive: -0.141

Question: Which z-score does the source give for GGAGGAGCUUUACACGGUUTT against Ap1gbp1 here?
Answer: inactive: -2.1

Question: With GGCCAUCAGAGAAAAGAUATT against Akr1d1 as the sequence, how does the z-score read?
Answer: inactive: 0.621

Question: Which z-score does the source give for GCCAAAUUGUCCCGGGCAUTT against Usp39 here?
Answer: inactive: -2.65

Question: For GGAAAGACUUUGAAACUUUTT against Dach2, which z-score is on record?
Answer: inactive: -0.278

Question: Which z-score does the source give for “GCGUGAGAGAACAACAGACTT against 5830415L20Rik” here?
Answer: inactive: 0.215

Question: For GCAGGUGGUUGUUUCUUAGTT against Slco2a1, which z-score is on record?
Answer: inactive: 0.184

Question: For CCACAGUGGAUUGAUUGUATT against Rnh2, which z-score is on record?
Answer: inactive: -0.246

Question: For GGUGCUAAGGAGAAGAAGCTT against Plagl2, which z-score is on record?
Answer: inactive: 1.37

Question: For GGAAAAAAAAAACUGUCUGTT against Pitpnm2, which z-score is on record?
Answer: inactive: 0.263

Question: With GGGACGUAAAUCAAAUGAATT against P2ry12 as the sequence, how does the z-score read?
Answer: inactive: 0.644

Question: For GGCUGAAGCAGUUUCAUUUTT against Car5a, which z-score is on record?
Answer: inactive: -1.72

Question: With GGAUCUAUAAGGACUACAUTT against Bmp7 as the sequence, how does the z-score read?
Answer: inactive: -0.68

Question: With CCAUCCACAGCAGUCCCAATT against Olfr530 as the sequence, how does the z-score read?
Answer: inactive: -1.44

Question: With GGAAUUCGAGAAGUAACUATT against Dbt as the sequence, how does the z-score read?
Answer: inactive: -0.289

Question: For GGCGGUUCAAUAUUAAGCUTT against Wbscr14, which z-score is on record?
Answer: inactive: 2.05

Question: Which z-score does the source give for GGGAUUCCCAUCAUUGUGGTT against Gmpr here?
Answer: inactive: -0.678

Question: For CGUGUGCCACUAAUUGGCUTT against Urod, which z-score is on record?
Answer: inactive: 1.14

Question: Which z-score does the source give for GGCUUGACAACCUCAUGUCTT against Rnf41 here?
Answer: inactive: -0.509

Question: For GGACACAUGGAAGAGGAUUTT against Rnf139, which z-score is on record?
Answer: inactive: 1.61

Question: With “CGUGAAUCCUAACAUGAGATT against 1810029G24Rik” as the sequence, how does the z-score read?
Answer: inactive: 0.398

Question: Which z-score does the source give for GGCAAAAUAAAGGAUAGGATT against Prpf4b here?
Answer: inactive: -0.432

Question: For “GGCUUUGGCAUGAUUGGCCTT against 1110039B18Rik”, which z-score is on record?
Answer: inactive: -0.728

Question: Which z-score does the source give for CGAUGUGACUAUUUGUUGATT against Snx11 here?
Answer: inactive: 0.316

Question: With CCUAAACCUUUAAAUCAGUTT against Gsdm1 as the sequence, how does the z-score read?
Answer: inactive: 1.39

Question: With GGACGACAGGAACUGGCAATT against Fbxo9 as the sequence, how does the z-score read?
Answer: inactive: -2.21

Question: For GGUUUUGCACAGCAUUGGUTT against Efna1, which z-score is on record?
Answer: inactive: -1.31

Question: For “GCAUACUUGUUUUAGCUAATT against 1110057H19Rik”, which z-score is on record?
Answer: inactive: 0.425

Question: For GGGUGAUGACGCAAUAUGCTT against Kcnma1, which z-score is on record?
Answer: inactive: 0.754

Question: Which z-score does the source give for “AGACCACAGUUAGCAGUGGTT against 6030457N17Rik” here?
Answer: inactive: 1.31

Question: Which z-score does the source give for GGAGUUCGACAUUAGCGGATT against Ehf here?
Answer: inactive: 0.231

Question: For “GGAUUCAUAACAAAACGAGTT against 2810417M05Rik”, which z-score is on record?
Answer: inactive: 0.672

Question: Which z-score does the source give for GCCAAUAUGCUUAAUUAGATT against Il7 here?
Answer: inactive: 2.05

Question: For “GCAAGCCAACGUGUCGGAATT against 1500019O16Rik”, which z-score is on record?
Answer: inactive: 1.6

Question: For GGAAAUGAGUAGUAGUAGUTT against Svp2, which z-score is on record?
Answer: inactive: 0.0822

Question: Which z-score does the source give for GGAAAUCUGAUGUGGAAAGTT against Crsp2 here?
Answer: inactive: -0.889

Question: Which z-score does the source give for GGCACAAAGCGUAUACUGATT against Ugt2a2 here?
Answer: inactive: 0.631

Question: Which z-score does the source give for GCCCAACUGCUACCUGUUUTT against Mansc1 here?
Answer: inactive: -1.24

Question: For GGAAGAUUUGGAAAAUGGATT against Zcsl2, which z-score is on record?
Answer: inactive: -1.47

Question: With GCCUCAACAUGGAAUGUCGTT against Ppard as the sequence, how does the z-score read?
Answer: inactive: -1.73

Question: For GGAUACAGCAGUACAAAUGTT against Ces2, which z-score is on record?
Answer: inactive: -0.472

Question: Which z-score does the source give for GCCCAUGACCAGUUCAAGUTT against Actn4 here?
Answer: inactive: 0.000166

Question: With GCAUGCAGUCAAGUCAACGTT against Pnoc as the sequence, how does the z-score read?
Answer: inactive: 0.292

Question: With CGUGAUCGGGUACUGAUGUTT against Bscl2 as the sequence, how does the z-score read?
Answer: inactive: -1.18

Question: For “CCAAAUUAACAGGGCUUUGTT against 9630046K23Rik”, which z-score is on record?
Answer: inactive: -0.667

Question: With GCGAUUUAUUGCCAAGCCCTT against Lass5 as the sequence, how does the z-score read?
Answer: inactive: 0.676

Question: With GGACAUUAGGGAAGUGCCUTT against Olfr281 as the sequence, how does the z-score read?
Answer: inactive: -1.16

Question: For “GGAGAAAUUCUAUGGUAUUTT against 5031434C07Rik”, which z-score is on record?
Answer: inactive: 0.537

Question: Which z-score does the source give for CGUUGAUCCUUUUCAACAUTT against Olfr881 here?
Answer: inactive: 0.935

Question: Which z-score does the source give for GGACUCUGAAGAGGAAAAGTT against Aprin here?
Answer: inactive: -2.99

Question: Which z-score does the source give for GGUGUUUCAGAGGCCAAACTT against Stfa1 here?
Answer: inactive: 1.01

Question: Which z-score does the source give for GCCAUCACAAGUGAGUUCATT against Olfr951 here?
Answer: inactive: -1.27

Question: Which z-score does the source give for CCAUACAUUGGAUCAAAGCTT against Rae1 here?
Answer: inactive: 1.13

Question: With GGUUUUCAAUUUUACACACTT against Dtnbp1 as the sequence, how does the z-score read?
Answer: inactive: 0.232

Question: With “GCGGCAAUAUAAGCUACGUTT against 1600015H20Rik” as the sequence, how does the z-score read?
Answer: inactive: 0.429
